# Reference: the supplement of paper PMC10032668
# Protein sequences, listed by entry. Tags and fused reporters are not part of them.
# CLPX, O76031, UniProt O76031, whole entry: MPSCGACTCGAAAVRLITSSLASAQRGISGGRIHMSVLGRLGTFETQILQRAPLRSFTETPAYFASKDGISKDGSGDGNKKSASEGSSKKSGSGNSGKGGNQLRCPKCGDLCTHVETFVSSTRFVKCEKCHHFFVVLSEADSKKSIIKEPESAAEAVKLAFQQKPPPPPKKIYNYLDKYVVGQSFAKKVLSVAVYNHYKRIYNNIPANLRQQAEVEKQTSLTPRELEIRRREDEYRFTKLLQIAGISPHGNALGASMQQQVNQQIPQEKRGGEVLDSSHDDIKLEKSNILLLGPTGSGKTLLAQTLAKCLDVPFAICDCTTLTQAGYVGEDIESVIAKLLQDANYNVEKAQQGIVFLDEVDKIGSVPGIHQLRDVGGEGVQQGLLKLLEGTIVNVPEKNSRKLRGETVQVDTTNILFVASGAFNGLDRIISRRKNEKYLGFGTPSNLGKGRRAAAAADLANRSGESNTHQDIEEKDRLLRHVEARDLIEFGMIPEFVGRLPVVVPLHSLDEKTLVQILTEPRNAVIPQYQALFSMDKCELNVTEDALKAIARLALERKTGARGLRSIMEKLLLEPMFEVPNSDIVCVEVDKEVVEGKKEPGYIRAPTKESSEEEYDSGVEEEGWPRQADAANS
# DMD, P11532, UniProt P11532, whole entry: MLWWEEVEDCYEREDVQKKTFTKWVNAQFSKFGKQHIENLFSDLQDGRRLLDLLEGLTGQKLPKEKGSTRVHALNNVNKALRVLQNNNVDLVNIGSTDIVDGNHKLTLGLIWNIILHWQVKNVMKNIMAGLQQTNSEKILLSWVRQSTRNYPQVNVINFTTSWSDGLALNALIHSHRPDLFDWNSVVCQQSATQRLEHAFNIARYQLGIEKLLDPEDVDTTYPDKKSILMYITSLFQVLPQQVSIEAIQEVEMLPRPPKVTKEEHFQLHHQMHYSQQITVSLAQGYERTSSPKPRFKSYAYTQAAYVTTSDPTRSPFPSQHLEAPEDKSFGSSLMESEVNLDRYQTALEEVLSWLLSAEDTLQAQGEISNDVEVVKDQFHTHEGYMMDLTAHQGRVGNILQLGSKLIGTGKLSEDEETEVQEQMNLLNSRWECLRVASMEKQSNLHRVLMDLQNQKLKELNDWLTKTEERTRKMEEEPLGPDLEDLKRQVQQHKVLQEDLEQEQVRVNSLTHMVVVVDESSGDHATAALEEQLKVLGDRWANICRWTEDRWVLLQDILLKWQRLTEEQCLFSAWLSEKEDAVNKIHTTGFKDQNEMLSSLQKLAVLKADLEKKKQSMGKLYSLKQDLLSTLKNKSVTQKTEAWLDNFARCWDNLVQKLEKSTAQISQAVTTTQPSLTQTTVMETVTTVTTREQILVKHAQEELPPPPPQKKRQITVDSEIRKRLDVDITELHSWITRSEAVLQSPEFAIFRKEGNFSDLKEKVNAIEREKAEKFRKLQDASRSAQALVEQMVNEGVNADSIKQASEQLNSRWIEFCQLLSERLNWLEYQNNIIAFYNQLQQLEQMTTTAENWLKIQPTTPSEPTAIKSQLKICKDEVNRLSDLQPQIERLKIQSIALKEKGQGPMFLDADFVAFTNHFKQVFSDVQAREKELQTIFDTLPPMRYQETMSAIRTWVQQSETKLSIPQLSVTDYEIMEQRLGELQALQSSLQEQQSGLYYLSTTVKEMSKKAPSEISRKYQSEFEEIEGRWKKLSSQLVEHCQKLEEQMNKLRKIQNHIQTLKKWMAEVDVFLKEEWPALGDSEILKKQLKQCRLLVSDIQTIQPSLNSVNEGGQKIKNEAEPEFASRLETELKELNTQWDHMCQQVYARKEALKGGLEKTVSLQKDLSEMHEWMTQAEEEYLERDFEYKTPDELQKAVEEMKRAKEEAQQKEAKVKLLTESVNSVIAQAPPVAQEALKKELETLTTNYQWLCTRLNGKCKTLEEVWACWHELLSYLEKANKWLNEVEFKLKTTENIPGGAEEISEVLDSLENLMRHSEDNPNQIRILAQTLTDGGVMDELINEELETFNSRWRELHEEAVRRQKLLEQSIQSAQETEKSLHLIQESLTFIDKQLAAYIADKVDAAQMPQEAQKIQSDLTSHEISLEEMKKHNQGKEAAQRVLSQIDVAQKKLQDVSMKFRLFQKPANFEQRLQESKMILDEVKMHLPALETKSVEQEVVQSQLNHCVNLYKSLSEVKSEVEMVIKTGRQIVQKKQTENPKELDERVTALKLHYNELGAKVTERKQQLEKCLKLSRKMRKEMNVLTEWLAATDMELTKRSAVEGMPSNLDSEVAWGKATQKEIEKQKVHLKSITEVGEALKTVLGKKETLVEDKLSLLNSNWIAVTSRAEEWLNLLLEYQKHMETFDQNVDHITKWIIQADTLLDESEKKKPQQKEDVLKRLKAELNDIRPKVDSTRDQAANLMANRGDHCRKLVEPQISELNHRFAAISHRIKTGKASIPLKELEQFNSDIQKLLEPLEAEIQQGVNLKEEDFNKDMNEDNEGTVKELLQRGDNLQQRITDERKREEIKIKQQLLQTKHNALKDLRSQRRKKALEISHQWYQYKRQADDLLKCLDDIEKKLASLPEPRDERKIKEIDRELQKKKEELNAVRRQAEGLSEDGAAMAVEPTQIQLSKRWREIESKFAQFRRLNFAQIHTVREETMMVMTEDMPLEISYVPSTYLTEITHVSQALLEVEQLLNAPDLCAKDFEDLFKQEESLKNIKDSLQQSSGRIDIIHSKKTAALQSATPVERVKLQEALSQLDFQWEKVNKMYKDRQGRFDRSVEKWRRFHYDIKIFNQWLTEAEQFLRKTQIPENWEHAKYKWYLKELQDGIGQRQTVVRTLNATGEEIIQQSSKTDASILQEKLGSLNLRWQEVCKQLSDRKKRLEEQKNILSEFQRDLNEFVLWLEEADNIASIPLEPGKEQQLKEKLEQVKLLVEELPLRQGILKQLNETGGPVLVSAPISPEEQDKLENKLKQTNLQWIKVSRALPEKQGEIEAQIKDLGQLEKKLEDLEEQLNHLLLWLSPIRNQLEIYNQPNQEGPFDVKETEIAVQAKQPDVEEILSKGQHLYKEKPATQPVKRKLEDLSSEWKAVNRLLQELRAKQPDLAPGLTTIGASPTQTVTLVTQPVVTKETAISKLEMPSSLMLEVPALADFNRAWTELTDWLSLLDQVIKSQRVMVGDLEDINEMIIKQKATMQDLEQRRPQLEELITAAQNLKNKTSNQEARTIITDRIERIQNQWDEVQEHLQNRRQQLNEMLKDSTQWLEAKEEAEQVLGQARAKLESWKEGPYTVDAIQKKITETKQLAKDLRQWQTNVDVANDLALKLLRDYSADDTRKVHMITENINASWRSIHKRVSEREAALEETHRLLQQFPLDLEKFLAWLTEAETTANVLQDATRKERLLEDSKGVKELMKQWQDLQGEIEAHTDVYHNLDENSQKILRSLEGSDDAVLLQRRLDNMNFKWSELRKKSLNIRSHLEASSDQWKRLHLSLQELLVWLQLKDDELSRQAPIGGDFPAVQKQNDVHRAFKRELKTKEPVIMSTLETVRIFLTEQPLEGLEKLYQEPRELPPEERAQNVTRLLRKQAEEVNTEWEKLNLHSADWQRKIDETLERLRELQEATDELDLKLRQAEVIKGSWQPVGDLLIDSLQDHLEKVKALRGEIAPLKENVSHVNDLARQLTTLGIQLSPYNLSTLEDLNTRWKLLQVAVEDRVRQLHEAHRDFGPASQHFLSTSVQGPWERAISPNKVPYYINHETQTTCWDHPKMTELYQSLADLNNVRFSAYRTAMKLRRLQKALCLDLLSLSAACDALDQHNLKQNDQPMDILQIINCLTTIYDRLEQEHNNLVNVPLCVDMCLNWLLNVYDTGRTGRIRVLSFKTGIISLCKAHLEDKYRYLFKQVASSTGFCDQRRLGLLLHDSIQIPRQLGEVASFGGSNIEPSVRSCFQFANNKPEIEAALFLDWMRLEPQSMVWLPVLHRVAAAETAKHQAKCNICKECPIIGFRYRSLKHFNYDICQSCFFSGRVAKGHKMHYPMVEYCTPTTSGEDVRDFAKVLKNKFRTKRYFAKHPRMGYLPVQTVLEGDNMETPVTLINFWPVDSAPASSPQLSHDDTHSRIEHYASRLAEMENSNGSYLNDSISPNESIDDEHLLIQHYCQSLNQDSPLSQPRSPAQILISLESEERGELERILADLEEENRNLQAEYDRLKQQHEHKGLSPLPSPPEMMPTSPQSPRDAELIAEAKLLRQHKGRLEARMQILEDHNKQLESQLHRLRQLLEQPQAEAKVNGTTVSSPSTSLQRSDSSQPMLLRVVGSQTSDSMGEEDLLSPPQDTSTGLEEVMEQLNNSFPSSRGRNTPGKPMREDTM
# NUP153, P49790, UniProt P49790, whole entry: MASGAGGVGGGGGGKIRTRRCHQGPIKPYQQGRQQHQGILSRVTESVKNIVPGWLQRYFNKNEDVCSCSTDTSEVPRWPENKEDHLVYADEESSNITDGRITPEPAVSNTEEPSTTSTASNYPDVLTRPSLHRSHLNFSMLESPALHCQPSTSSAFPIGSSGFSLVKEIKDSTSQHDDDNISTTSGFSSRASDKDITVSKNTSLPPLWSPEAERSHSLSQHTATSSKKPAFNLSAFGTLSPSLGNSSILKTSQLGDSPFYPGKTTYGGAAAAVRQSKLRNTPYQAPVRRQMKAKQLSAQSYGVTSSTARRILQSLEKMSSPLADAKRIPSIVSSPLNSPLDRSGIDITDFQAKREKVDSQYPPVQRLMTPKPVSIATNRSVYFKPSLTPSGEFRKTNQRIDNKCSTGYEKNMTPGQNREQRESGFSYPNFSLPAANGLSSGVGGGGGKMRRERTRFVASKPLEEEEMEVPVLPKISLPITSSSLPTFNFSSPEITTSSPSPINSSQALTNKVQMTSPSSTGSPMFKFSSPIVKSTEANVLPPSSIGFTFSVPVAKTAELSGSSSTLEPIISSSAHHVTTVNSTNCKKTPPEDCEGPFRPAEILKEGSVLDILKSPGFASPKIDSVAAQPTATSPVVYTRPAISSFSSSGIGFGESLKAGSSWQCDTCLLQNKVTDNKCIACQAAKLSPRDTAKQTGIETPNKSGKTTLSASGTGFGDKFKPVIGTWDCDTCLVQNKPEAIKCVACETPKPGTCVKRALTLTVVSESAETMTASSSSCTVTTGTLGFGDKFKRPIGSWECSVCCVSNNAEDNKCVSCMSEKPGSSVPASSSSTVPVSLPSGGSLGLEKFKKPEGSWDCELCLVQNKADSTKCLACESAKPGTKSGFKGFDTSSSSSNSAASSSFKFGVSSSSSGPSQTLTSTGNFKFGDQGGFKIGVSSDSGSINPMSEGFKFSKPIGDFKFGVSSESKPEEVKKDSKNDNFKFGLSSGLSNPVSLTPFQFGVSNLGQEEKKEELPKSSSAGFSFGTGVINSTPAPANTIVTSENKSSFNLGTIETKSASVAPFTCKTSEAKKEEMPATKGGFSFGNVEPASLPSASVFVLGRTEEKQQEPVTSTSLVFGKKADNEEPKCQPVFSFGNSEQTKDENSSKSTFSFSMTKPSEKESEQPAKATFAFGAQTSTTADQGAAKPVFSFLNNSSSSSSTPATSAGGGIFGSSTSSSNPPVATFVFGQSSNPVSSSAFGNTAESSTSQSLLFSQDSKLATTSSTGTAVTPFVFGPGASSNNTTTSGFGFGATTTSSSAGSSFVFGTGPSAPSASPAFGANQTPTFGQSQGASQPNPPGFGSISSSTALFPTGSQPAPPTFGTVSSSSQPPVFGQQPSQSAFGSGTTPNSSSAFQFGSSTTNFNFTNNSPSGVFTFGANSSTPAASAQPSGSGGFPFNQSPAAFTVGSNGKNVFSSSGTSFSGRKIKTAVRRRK
# DCTN3, O75935, UniProt O75935, whole entry: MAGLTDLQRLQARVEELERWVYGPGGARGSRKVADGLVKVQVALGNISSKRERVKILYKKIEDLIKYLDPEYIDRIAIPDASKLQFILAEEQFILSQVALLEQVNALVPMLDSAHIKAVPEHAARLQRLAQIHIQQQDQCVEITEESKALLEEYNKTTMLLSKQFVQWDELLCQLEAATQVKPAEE
# DLX6, P56179, UniProt P56179, whole entry: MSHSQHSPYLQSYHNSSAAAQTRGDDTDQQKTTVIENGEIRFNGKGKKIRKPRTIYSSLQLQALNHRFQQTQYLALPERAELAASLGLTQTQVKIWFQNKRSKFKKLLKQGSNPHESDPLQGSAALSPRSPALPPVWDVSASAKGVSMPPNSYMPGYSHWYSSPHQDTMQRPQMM
# PCBP2, Q15366, UniProt Q15366, whole entry: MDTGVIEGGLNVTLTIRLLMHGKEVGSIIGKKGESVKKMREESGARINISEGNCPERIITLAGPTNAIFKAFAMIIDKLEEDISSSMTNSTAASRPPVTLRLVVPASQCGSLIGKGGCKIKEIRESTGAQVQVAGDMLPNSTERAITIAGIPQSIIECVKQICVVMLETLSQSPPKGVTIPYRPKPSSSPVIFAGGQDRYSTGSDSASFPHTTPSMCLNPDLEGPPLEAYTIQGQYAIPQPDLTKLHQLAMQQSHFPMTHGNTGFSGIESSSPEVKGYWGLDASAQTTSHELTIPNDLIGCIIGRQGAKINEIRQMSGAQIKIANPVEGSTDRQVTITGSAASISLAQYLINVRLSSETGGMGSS
# Some of the results follow. The list holds hits alone, and they repeat only in part.
# Experiments:
# Test in all cases: PRISMA enrichment of interactor (LFQ) in peptide spot vs all other peptide spots (log2 fold change); higher = stronger / more specific binding of the interactor to the peptide
# [1] = target: AK4, P27144
# Description: (§1)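 PRISMA: 221 full-length sORF-encoded peptides (3-15 aa), plus SOS1/GLUT1 control peptides, were spot-synthesized on cellulose membranes in triplicate. Membranes were incubated with HEK293T lysate, and bound proteins were identified by LC-MS/MS with LFQ. Enrichment is the log2 fold change versus all other peptide spots; only significant interactors are listed (cutoff c=6, x0=2.8).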
# [2] = target: CHD8, Q9HCK8
# Description: as §1
# [3] = target: CLPX, O76031
# Description: as §1
# [4] = target: COG3, Q96JB2
# Description: as §1
# [5] = target: DDX5, P17844
# Description: as §1
# [6] = target: DDX50, Q9BQ39
# Description: as §1
# [7] = target: DMD, P11532
# Description: as §1
# [8] = target: DUSP3, P51452
# Description: as §1
# [9] = target: EHD4, Q9H223
# Description: as §1
# [10] = target: IARS2, Q9NSE4
# Description: as §1
# [11] = target: MEMO1, Q9Y316
# Description: as §1
# [12] = target: MRPL18, Q9H0U6
# Description: as §1
# [13] = target: MRPS10, P82664
# Description: as §1
# [14] = target: MSI1, O43347
# Description: as §1
# [15] = target: NAMPT, P43490
# Description: as §1
# [16] = target: NCKIPSD, Q9NZQ3
# Description: as §1
# [17] = target: NUBP2, Q9Y5Y2
# Description: as §1
# [18] = target: NUP153, P49790
# Description: as §1
# [19] = target: OSTC, Q9NRP0
# Description: as §1
# [20] = target: PICALM, Q13492
# Description: as §1
# [21] = target: PRMT3, O60678
# Description: as §1
# [22] = target: PUM1, Q14671
# Description: as §1
# [23] = target: QRICH1, Q2TAL8
# Description: as §1
# [24] = target: RELCH, Q9P260
# Description: as §1
# [25] = target: RPF2, Q9H7B2
# Description: as §1
# [26] = target: SCPEP1, Q9HB40
# Description: as §1
# [27] = target: SRPK1, Q96SB4
# Description: as §1
# [28] = target: TFB1M, Q8WVM0
# Description: as §1
# [29] = target: UBAP2L, Q14157
# Description: as §1
# [30] = target: UBR5, O95071
# Description: as §1
# [31] = target: UMPS, P11172
# Description: as §1
# [32] = target: ATIC, P31939
# Description: as §1
# [33] = target: BCAS2, O75934
# Description: as §1
# [34] = target: DCTN3, O75935
# Description: as §1
# [35] = target: DLX6, P56179
# Description: as §1
# [36] = target: MAGED2, Q9UNF1
# Description: as §1
# [37] = target: MARK2, Q7KZI7
# Description: as §1
# [38] = target: ORC3, Q9UBD5
# Description: as §1
# [39] = target: CCAR1, Q8IX12
# Description: as §1
# [40] = target: CLPP, Q16740
# Description: as §1
# [41] = target: LAMTOR5, O43504
# Description: as §1
# [42] = target: NTPCR, Q9BSD7
# Description: as §1
# [43] = target: NUP54, Q7Z3B4
# Description: as §1
# [44] = target: ORC4, O43929
# Description: as §1
# [45] = target: PCBP2, Q15366
# Description: as §1
# [46] = target: PTPMT1, Q8WUK0
# Description: as §1
# [47] = target: UFD1, Q92890
# Description: as §1
# [48] = target: UTP15, Q8TED0
# Description: as §1
binder,measurement,setting,value
MHVILTQWLLLTNR [PPARD],PRISMA enrichment of interactor (log2),[1],5.59
same,PRISMA enrichment of interactor (log2),[2],6
same,PRISMA enrichment of interactor (log2),[3],5.32
same,PRISMA enrichment of interactor (log2),[4],7.8
same,PRISMA enrichment of interactor (log2),[5],6.34
same,PRISMA enrichment of interactor (log2),[6],4.47
same,PRISMA enrichment of interactor (log2),[7],7.69
same,PRISMA enrichment of interactor (log2),[8],5.2
same,PRISMA enrichment of interactor (log2),[9],5.39
same,PRISMA enrichment of interactor (log2),[10],5.36
same,PRISMA enrichment of interactor (log2),[11],4.83
same,PRISMA enrichment of interactor (log2),[12],6.35
same,PRISMA enrichment of interactor (log2),[13],5.01
same,PRISMA enrichment of interactor (log2),[14],4.34
same,PRISMA enrichment of interactor (log2),[15],5.73
same,PRISMA enrichment of interactor (log2),[16],5.76
same,PRISMA enrichment of interactor (log2),[17],5.27
same,PRISMA enrichment of interactor (log2),[18],5.64
same,PRISMA enrichment of interactor (log2),[19],5.08
same,PRISMA enrichment of interactor (log2),[20],5.24
same,PRISMA enrichment of interactor (log2),[21],6.22
same,PRISMA enrichment of interactor (log2),[22],5.22
same,PRISMA enrichment of interactor (log2),[23],4.54
same,PRISMA enrichment of interactor (log2),[24],3.9
same,PRISMA enrichment of interactor (log2),[25],4.46
same,PRISMA enrichment of interactor (log2),[26],6.93
same,PRISMA enrichment of interactor (log2),[27],7.89
same,PRISMA enrichment of interactor (log2),[28],4.5
same,PRISMA enrichment of interactor (log2),[29],5.91
same,PRISMA enrichment of interactor (log2),[30],6.07
same,PRISMA enrichment of interactor (log2),[31],5.84
MQWLLDCAMTGRK [RASSF4],PRISMA enrichment of interactor (log2),[1],5.63
same,PRISMA enrichment of interactor (log2),[32],5.36
same,PRISMA enrichment of interactor (log2),[33],4.46
same,PRISMA enrichment of interactor (log2),[34],6.67
same,PRISMA enrichment of interactor (log2),[35],8.59
same,PRISMA enrichment of interactor (log2),[36],4.44
same,PRISMA enrichment of interactor (log2),[37],6.19
same,PRISMA enrichment of interactor (log2),[38],4.71
same,PRISMA enrichment of interactor (log2),[23],7.48
MKCSFLTFLLQLV [FBLN5],PRISMA enrichment of interactor (log2),[1],5.77
same,PRISMA enrichment of interactor (log2),[39],4.77
same,PRISMA enrichment of interactor (log2),[40],5.23
same,PRISMA enrichment of interactor (log2),[3],5.61
same,PRISMA enrichment of interactor (log2),[8],4.61
same,PRISMA enrichment of interactor (log2),[41],4.68
same,PRISMA enrichment of interactor (log2),[15],6.32
same,PRISMA enrichment of interactor (log2),[42],7.07
same,PRISMA enrichment of interactor (log2),[17],5.21
same,PRISMA enrichment of interactor (log2),[18],6.01
same,PRISMA enrichment of interactor (log2),[43],4.52
same,PRISMA enrichment of interactor (log2),[44],4.62
same,PRISMA enrichment of interactor (log2),[45],5.91
same,PRISMA enrichment of interactor (log2),[46],4.85
same,PRISMA enrichment of interactor (log2),[28],6.33
same,PRISMA enrichment of interactor (log2),[29],5.55
same,PRISMA enrichment of interactor (log2),[47],3.91
same,PRISMA enrichment of interactor (log2),[31],5.91
same,PRISMA enrichment of interactor (log2),[48],8.23

# Given with tabs: entries from further up
binder	measurement	setting	value
MHVILTQWLLLTNR [PPARD]	PRISMA enrichment of interactor (log2)	[4]	7.8
same	PRISMA enrichment of interactor (log2)	[7]	7.69
same	PRISMA enrichment of interactor (log2)	[28]	4.5
MKCSFLTFLLQLV [FBLN5]	PRISMA enrichment of interactor (log2)	[46]	4.85
same	PRISMA enrichment of interactor (log2)	[47]	3.91
